The record followed here is doi:10.1101/2022.04.05.487156.

By UniProt entry, the sequences of proteins in these tests, tags left out.
UniProt Q9H3P7: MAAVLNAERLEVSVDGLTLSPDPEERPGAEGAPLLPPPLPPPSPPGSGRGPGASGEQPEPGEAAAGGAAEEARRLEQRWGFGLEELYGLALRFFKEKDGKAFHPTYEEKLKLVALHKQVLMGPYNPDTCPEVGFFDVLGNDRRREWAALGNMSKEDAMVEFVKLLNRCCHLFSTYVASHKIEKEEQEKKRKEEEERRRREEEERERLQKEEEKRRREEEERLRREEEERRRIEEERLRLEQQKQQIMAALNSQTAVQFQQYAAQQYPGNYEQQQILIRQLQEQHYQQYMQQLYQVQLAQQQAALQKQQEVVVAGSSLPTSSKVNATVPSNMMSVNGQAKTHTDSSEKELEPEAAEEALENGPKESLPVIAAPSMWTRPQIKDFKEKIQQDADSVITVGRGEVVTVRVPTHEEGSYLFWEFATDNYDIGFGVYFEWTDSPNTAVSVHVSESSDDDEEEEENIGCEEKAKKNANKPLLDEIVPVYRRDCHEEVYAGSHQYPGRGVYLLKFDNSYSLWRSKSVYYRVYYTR

Read-outs that look alike come from different tables or passages of the source. No constants are given. Whether binding was seen depends on the method and setting. In cells and extracts the contact can be indirect. Here binding means that the protein was enriched with, or labelled near, the bait; the list need not be complete. Tags and fused reporters may be left off the sequences shown.

For test [1], the target named is T1, CARP2 (Tap-tag system) (human) (UniProt Q8WZ73).
T1 sequence: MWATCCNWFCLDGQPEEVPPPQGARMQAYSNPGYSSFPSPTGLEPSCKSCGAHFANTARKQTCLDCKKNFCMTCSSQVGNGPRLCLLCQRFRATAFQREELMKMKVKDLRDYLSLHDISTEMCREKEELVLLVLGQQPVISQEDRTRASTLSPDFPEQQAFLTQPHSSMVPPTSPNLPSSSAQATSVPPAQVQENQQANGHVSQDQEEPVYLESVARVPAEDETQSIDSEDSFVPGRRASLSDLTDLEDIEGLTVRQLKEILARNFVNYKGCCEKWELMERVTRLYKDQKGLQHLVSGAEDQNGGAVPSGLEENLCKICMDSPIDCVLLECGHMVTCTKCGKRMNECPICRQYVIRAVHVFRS
In words: affinity purification with mass spectrometry.

The target of test [2] is T1, CARP2 (Tap-tag system) (human). The experiment in a line: affinity purification with mass spectrometry. The source holds these as a separate data set.

As for ACBD3 (from UniProt Q9H3P7 1-528), the binding result in test [1] is given as “binds”.

B1: Golgin45 (endogenous) (protein, UniProt Q9H2G9 1-400)
chain: MTTKNLETKVTVTSSPIRGAGDGMETEEPPKSVEVTSGVQSRKHHSLQSPWKKAVPSESPGVLQLGKMLTEKAMEVKAVRILVPKAAITHDIPNKNTKVKSLGHHKGEFLGQSEGVIEPNKELSEVKNVLEKLKNSERRLLQDKEGLSNQLRVQTEVNRELKKLLVASVGDDLQYHFERLAREKNQLILENEALGRNTAQLSEQLERMSIQCDVWRSKFLASRVMADELTNSRAALQRQNRDAHGAIQDLLSEREQFRQEMIATQKLLEELLVSLQWGREQTYSPSVQPHSTAELALTNHKLAKAVNSHLLGNVGINNQKKIPSTVEFCSTPAEKMAETVLRILDPVTCKESSPDNPFFESSPTTLLATKKNIGRFHPYTRYENITFNCCNHCRGELIAL
Turning to B1, the binding entry in test [2] was “binds”.
